Results reported in article PMC7917804.
Numbering of substitutions follows the chain as printed. Results are given in words; binding and its absence hold for the method and conditions named. Binding seen in cells or lysates may run through a third protein. Some binding calls cover weakened binding; strength is not graded here. For some assays here: Sequences can lack the tags named with a protein.

By UniProt entry, the sequences of proteins in these tests, tags left out.
UniProt A5YKK6: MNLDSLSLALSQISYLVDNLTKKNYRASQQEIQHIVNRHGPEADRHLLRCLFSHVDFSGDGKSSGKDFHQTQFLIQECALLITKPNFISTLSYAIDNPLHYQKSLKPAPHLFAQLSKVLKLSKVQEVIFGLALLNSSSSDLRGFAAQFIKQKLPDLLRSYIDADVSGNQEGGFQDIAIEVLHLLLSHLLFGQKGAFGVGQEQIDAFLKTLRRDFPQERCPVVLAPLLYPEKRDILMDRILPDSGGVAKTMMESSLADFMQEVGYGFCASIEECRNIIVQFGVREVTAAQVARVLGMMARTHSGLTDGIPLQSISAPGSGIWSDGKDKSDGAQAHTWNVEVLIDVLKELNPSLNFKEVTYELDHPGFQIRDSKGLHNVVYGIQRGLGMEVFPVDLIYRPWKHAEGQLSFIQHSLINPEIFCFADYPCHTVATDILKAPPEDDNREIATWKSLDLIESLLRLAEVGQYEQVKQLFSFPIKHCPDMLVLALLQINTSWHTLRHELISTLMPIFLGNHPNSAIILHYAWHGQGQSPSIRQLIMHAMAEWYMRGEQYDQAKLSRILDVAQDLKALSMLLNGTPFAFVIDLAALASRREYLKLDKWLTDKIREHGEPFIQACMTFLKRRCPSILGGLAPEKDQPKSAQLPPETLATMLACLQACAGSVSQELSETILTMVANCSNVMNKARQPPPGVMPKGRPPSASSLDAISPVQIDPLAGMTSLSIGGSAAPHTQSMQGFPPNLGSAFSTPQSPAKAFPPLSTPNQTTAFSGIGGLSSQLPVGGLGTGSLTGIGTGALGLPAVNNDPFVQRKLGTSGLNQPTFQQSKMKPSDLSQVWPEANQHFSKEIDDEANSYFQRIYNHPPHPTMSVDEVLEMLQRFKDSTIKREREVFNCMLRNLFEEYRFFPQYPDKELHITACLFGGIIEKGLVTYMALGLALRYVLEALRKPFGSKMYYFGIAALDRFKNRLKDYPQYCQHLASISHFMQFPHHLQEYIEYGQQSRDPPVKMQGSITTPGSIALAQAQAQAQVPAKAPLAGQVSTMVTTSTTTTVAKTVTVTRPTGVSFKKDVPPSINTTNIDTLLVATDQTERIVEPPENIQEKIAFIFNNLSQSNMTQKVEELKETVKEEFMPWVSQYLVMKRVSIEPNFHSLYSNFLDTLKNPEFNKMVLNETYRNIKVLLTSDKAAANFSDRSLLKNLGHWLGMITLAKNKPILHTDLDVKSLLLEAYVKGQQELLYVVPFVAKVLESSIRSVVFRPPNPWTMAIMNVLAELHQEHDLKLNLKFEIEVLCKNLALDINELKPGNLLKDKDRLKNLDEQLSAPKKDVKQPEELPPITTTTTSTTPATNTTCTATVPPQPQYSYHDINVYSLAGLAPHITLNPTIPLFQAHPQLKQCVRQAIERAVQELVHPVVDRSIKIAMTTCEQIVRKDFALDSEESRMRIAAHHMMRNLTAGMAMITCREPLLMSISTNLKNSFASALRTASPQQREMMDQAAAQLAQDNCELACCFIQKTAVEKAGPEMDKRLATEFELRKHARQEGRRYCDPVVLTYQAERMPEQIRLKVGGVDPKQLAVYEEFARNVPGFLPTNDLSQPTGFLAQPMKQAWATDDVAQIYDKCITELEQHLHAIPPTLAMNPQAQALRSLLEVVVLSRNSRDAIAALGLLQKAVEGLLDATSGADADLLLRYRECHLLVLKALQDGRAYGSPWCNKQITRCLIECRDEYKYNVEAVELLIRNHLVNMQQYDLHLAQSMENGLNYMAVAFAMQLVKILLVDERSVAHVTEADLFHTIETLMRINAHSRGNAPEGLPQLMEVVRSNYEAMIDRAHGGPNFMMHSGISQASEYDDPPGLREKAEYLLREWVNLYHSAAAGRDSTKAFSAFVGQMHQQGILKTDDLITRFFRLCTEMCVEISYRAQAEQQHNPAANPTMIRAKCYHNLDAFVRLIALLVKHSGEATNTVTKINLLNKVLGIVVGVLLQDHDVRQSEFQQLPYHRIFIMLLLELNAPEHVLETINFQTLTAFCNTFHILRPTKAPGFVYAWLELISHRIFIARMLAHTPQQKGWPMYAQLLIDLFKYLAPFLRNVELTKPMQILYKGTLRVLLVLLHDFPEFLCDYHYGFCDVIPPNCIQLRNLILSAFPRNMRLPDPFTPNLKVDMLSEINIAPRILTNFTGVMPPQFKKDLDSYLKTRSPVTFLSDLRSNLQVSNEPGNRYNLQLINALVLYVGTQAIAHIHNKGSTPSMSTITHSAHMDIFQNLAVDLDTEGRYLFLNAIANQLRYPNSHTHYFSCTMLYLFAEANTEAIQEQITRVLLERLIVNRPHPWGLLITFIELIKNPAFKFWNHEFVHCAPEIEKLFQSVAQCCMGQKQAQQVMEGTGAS
UniProt Q92600: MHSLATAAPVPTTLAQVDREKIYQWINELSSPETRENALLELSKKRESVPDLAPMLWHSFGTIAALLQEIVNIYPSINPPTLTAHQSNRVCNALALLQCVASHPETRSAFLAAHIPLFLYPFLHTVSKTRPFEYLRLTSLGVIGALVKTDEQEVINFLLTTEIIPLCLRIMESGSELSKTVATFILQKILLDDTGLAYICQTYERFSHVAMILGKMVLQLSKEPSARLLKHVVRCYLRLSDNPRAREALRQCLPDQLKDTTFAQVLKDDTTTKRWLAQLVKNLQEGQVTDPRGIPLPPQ

Columns and labels:
[1] = molecular target: T1, FHS-TNRC6A-SD-S1616A/S1691A (human) (UniProt Q8NDV7); assay: co-IP; lysates of HeLa cells expressing FHS-tagged TNRC6A-SD fragments (collected 24 h after transfection) or full-length TNRC6A (36 h), anti-FLAG antibody beads 2 h at 4 °C, lysis buffer with 140 mM NaCl, wash buffer with 300 mM NaCl and 0.5% NP40; endogenous CNOT1, CNOT9 and PABP detected by Western …
T1 sequence: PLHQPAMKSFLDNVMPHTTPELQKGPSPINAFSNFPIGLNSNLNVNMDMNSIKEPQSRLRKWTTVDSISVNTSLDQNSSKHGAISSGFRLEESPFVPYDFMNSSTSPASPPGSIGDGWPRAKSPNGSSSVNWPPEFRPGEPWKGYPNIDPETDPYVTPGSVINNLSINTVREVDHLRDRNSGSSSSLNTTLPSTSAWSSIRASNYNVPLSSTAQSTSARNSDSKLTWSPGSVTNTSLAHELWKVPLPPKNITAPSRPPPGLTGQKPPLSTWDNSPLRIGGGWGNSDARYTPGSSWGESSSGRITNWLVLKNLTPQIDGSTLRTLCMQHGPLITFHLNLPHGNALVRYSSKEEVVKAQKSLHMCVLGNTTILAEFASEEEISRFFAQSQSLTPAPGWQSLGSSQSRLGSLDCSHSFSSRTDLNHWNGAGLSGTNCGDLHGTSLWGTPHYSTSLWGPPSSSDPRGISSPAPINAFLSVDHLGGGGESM

[2] = molecular target: FHS-FL-TNRC6A-S1332D/S1346D (human) (UniProt Q8NDV7); assay: as above
[3] = molecular target: FLAG-HA-SBP (FHS)-tagged full-length TNRC6A, wild type (human) (UniProt Q8NDV7); assay: as above
[4] = molecular target: FHS-FL-TNRC6A-S1332A/S1346A (human) (UniProt Q8NDV7); assay: as above
[5] = molecular target: FHS-FL-TNRC6A-S1616D/S1691D (human) (UniProt Q8NDV7); assay: as above
[6] = molecular target: T2, FHS-TNRC6A-SD-S1332A/S1346A/S1616A/S1691A (human) (UniProt Q8NDV7); assay: as above
T2 sequence: T1 sequence with S109A, S123A

[7] = molecular target: T3, myc-GFP-TNRC6A-SD (silencing domain fragment, amino acids 1224-1709) (human) (UniProt Q8NDV7); assay: co-IP; lysates of HeLa cells expressing GFP-tagged TNRC6A fragments, immunoprecipitated with anti-GFP antibody; endogenous CNOT1 and CNOT9 detected by Western blot
T3 sequence: T1 sequence with A393S, A468S

Measured: binding

CNOT1 (from UniProt A5YKK6 1-2376)
binds: [1] | [2] | [3] | [4] | [5] | [6] | [7]

CNOT9 (from UniProt Q92600 1-299)
binds: [1] | [2] | [3] | [4] | [5] | [6] | [7]
